In this test the target is T1, scDhr1-FTpA (S. cerevisiae) (UniProt Q04217).
T1 sequence: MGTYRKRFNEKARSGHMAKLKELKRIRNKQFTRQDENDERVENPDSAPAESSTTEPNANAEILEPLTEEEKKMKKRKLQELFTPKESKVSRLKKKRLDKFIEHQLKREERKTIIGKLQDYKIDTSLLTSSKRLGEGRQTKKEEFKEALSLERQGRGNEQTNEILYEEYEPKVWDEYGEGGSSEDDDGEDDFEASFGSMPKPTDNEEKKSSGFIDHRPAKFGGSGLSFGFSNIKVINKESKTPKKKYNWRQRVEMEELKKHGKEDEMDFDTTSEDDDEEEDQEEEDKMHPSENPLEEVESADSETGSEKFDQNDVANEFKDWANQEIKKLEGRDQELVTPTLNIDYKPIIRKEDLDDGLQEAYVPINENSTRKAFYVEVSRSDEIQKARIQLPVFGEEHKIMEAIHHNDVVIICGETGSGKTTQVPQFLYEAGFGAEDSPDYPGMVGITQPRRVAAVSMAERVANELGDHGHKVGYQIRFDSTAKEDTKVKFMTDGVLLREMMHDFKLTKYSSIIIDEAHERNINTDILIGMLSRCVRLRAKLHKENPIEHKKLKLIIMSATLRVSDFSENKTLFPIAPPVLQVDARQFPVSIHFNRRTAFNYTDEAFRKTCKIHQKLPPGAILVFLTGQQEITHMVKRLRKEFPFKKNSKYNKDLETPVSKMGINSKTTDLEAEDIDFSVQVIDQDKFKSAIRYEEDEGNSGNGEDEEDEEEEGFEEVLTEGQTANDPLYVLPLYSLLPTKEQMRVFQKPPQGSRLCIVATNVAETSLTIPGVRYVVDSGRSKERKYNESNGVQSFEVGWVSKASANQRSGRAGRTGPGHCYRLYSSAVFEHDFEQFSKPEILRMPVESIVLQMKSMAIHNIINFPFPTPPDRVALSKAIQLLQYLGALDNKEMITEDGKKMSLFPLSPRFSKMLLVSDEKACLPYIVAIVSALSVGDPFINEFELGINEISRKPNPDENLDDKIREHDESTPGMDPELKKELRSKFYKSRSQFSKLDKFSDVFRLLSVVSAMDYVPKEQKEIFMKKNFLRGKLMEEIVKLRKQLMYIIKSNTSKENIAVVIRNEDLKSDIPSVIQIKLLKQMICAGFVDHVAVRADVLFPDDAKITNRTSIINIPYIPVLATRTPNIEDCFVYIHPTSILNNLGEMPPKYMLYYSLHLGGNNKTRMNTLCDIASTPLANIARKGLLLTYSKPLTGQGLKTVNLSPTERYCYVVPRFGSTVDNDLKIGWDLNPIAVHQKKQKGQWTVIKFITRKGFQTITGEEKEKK
Briefly: affinity purification with mass spectrometry; tandem affinity-purification of FTpA-tagged yeast baits (IgG Sepharose, TEV, Flag agarose); SDS-PAGE, Coomassie, bands identified by mass spectrometry; cells expressing or depleted of Dim2 (GAL::scDIM2, glucose 8 h) or with or without Krr1 degradation (auxin 90 min).

This passage reports binding results from article PMC5738357.

No constants are given. Whether binding was seen depends on the method and setting. Binding seen in cells or lysates may run through a third protein. Here binding means that the protein was enriched with, or labelled near, the bait; the list need not be complete.

B1: Dis3 (protein, UniProt Q08162 1-1001)
chain: MSVPAIAPRRKRLADGLSVTQKVFVRSRNGGATKIVREHYLRSDIPCLSRSCTKCPQIVVPDAQNELPKFILSDSPLELSAPIGKHYVVLDTNVVLQAIDLLENPNCFFDVIVPQIVLDEVRNKSYPVYTRLRTLCRDSDDHKRFIVFHNEFSEHTFVERLPNETINDRNDRAIRKTCQWYSEHLKPYDINVVLVTNDRLNREAATKEVESNIITKSLVQYIELLPNADDIRDSIPQMDSFDKDLERDTFSDFTFPEYYSTARVMGGLKNGVLYQGNIQISEYNFLEGSVSLPRFSKPVLIVGQKNLNRAFNGDQVIVELLPQSEWKAPSSIVLDSEHFDVNDNPDIEAGDDDDNNESSSNTTVISDKQRRLLAKDAMIAQRSKKIQPTAKVVYIQRRSWRQYVGQLAPSSVDPQSSSTQNVFVILMDKCLPKVRIRTRRAAELLDKRIVISIDSWPTTHKYPLGHFVRDLGTIESAQAETEALLLEHDVEYRPFSKKVLECLPAEGHDWKAPTKLDDPEAVSKDPLLTKRKDLRDKLICSIDPPGCVDIDDALHAKKLPNGNWEVGVHIADVTHFVKPGTALDAEGAARGTSVYLVDKRIDMLPMLLGTDLCSLKPYVDRFAFSVIWELDDSANIVNVNFMKSVIRSREAFSYEQAQLRIDDKTQNDELTMGMRALLKLSVKLKQKRLEAGALNLASPEVKVHMDSETSDPNEVEIKKLLATNSLVEEFMLLANISVARKIYDAFPQTAMLRRHAAPPSTNFEILNEMLNTRKNMSISLESSKALADSLDRCVDPEDPYFNTLVRIMSTRCMMAAQYFYSGAYSYPDFRHYGLAVDIYTHFTSPIRRYCDVVAHRQLAGAIGYEPLSLTHRDKNKMDMICRNINRKHRNAQFAGRASIEYYVGQVMRNNESTETGYVIKVFNNGIVVLVPKFGVEGLIRLDNLTEDPNSAAFDEVEYKLTFVPTNSDKPRDVYVFDKVEVQVRSVMDPITSKRKAELLLK
B1: the binding entry is “binds”.
